Read-outs that look alike come from different tables or passages of the source. Results are given in words; binding and its absence hold for the method and conditions named. Binding seen in cells or lysates may run through a third protein. Here binding means that the protein was enriched with, or labelled near, the bait; the list need not be complete.

Protein sequences, listed by entry. Tags and fused reporters are not part of them.
UniProt Q13547: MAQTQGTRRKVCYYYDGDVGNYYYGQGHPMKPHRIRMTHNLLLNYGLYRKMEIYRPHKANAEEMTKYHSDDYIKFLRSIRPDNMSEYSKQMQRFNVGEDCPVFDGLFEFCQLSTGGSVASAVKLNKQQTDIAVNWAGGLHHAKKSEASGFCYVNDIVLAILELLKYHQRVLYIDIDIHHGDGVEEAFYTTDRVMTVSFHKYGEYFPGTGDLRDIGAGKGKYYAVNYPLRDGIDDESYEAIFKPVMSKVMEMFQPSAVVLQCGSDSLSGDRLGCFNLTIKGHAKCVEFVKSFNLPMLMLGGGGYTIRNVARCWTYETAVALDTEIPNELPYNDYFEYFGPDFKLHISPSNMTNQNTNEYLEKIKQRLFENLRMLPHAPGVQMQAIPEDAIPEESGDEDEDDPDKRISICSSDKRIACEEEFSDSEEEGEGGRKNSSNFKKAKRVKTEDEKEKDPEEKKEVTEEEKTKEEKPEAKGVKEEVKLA
UniProt Q92769: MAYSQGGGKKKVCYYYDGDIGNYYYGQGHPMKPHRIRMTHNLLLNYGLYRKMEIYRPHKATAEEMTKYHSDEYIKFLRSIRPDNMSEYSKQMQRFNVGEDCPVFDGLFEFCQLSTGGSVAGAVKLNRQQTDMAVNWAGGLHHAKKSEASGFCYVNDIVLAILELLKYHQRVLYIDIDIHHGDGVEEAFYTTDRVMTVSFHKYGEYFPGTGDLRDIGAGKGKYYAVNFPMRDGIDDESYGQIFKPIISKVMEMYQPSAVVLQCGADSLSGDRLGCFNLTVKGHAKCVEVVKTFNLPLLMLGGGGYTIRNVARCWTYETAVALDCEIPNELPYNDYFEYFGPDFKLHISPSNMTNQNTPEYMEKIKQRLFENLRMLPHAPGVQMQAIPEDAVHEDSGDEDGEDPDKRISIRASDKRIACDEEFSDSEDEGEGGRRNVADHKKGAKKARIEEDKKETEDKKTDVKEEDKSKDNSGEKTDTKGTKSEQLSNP

Experiment [1] deals with T1, ELMSAN1 (human (endogenous in 143B)) (UniProt Q6PJG2).
T1 sequence: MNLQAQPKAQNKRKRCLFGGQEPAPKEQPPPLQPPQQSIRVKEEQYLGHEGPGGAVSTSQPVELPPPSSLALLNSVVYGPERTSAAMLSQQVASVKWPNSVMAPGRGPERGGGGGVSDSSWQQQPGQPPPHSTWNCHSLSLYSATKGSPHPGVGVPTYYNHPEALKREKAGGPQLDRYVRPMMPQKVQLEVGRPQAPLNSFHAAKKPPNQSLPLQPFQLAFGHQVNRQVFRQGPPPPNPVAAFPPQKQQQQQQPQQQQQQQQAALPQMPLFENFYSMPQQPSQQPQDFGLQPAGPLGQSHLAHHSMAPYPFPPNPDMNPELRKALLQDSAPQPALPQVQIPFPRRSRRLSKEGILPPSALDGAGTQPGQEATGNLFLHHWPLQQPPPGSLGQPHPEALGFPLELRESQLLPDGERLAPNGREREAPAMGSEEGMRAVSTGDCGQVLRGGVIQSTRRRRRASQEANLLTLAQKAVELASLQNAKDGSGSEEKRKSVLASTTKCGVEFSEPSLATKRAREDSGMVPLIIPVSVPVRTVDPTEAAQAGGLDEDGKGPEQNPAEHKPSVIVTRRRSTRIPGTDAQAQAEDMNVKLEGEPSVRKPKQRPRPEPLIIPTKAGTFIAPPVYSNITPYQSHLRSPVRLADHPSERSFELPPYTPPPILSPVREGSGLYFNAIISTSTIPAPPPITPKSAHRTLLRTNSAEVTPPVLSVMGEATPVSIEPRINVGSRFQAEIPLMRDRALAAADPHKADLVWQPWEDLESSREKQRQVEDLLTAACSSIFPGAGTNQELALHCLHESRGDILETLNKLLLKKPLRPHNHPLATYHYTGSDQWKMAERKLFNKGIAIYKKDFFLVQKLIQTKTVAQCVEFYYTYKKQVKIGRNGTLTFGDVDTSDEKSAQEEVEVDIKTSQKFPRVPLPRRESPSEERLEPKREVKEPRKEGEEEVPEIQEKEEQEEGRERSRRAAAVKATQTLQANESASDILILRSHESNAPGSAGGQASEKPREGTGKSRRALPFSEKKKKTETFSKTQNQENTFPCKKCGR
Nature of the experiment: affinity purification with mass spectrometry.

In experiment [2] the target is T1, ELMSAN1 (human (endogenous in 143B)). Nature of the experiment: affinity purification with mass spectrometry. The source holds these as a separate data set.

For the molecule HDAC1 (from UniProt Q13547 1-482), in experiment [1], the binding result is “binds”.

For HDAC2 (from UniProt Q92769 1-488), in experiment [1], the binding entry is “binds”.

B1: DLAT (dihydrolipoamide S-acetyltransferase, the PDC E2 subunit) (protein, UniProt P10515 87-647)
chain: SLPPHQKVPLPSLSPTMQAGTIARWEKKEGDKINEGDLIAEVETDKATVGFESLEECYMAKILVAEGTRDVPIGAIICITVGKPEDIEAFKNYTLDSSAAPTPQAAPAPTPAATASPPTPSAQAPGSSYPPHMQVLLPALSPTMTMGTVQRWEKKVGEKLSEGDLLAEIETDKATIGFEVQEEGYLAKILVPEGTRDVPLGTPLCIIVEKEADISAFADYRPTEVTDLKPQVPPPTPPPVAAVPPTPQPLAPTPSAPCPATPAGPKGRVFVSPLAKKLAVEKGIDLTQVKGTGPDGRITKKDIDSFVPSKVAPAPAAVVPPTGPGMAPVPTGVFTDIPISNIRRVIAQRLMQSKQTIPHYYLSIDVNMGEVLLVRKELNKILEGRSKISVNDFIIKASALACLKVPEANSSWMDTVIRQNHVVDVSVAVSTPAGLITPIVFNAHIKGVETIANDVVSLATKAREGKLQPHEFQGGTFTISNLGMFGIKNFSAIINPPQACILAIGASEDKLVPADNEKGFDVASMMSVTLSCDHRVVDGAVGAQWLAEFRKYLEKPITMLL
With B1, the binding result in experiment [2] is given as “binds”.

For the origin of these results see article doi:10.1101/2025.04.25.650293.
